# Measurements published in PubChem BioAssay AID2685 (National Center for Advancing Translational Sciences (NCATS), 2010).
# This is one part of the list. Further columns of the screen follow, without active or inactive calls. Compounds called inactive in the main read-out are mostly missing here. The note in brackets gives the kind of curve behind each potency; many fits are weak.
# Assay: qHTS Assay for Lipid Storage Modulators in Drosophila S3 Cells;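 on cell number change: cells counted by Cell Tracker Red CMTPX staining in the red channel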
# Details: BODIPY lipid droplet fluorescence, 18-24 h; for cell number change: measured here: cell count max response, cells fed with added oleic acid
# How it was run: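 Laser-scanning cytometry quantifies lipid droplet accumulation (500–530 nm total intensity; droplet/cell object ratio) in oleic acid-fed (400 uM added) Drosophila S3 cells treated with a concentration series. 20 uM Triacsin C defined 100% inhibition.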
# [1] = measured here: lipid fluorescence (Fed channel) AC50, cells fed with added oleic acid
# [2] = measured here: cell number channel AC50, cells fed with added oleic acid
SMILES,cell number change [%],AC50 [1],AC50 [2]
C=CCNc1nc(Cl)nc(Nc2ccccc2)n1,28.8,–,–
CCCC12C(=O)C(C)(C(c3ccccc3)=C1c1ccccc1)C1C(=O)N(c3ccc(C)cc3)C(=O)C12 (configuration not stated),5.14,"10.3 µM [rising, partial curve]",–
Cc1csc(NC(=O)Cc2c(F)cccc2Cl)n1,10.6,"6.51 µM [rising, single point]",–
COc1cc(/C=C/C(=O)OCC(=O)Nc2ccccc2Cl)cc(OC)c1OC,–,"0.058 µM [falling, partial curve, poor fit]","2.31 µM [rising, single point]"
Cc1ccc(Oc2cnc3ccccc3n2)cc1,-28.6,–,–
CCn1c(=O)cc(SCC(=O)NCCN2CCN(Cc3ccccc3)CC2)c2ccccc21,92.3,–,"20.6 µM [rising, partial curve]"
Cc1ccc(C2=NCCn3c2c2ccc([N+](=O)[O-])cc2[n+]3[O-])cc1,–,"4.11 µM [falling, full curve]",–
COc1cccc(C(=O)NC(=S)Nc2ccc([N+](=O)[O-])cc2C)c1,-32.1,"1.64 µM [falling, partial curve, poor fit]","1.84 µM [falling, full curve]"
O=C(c1ccccc1)N1N=C(c2ccccc2)CC1c1ccccc1O (configuration not stated),-27.6,–,–
CN(C)S(=O)(=O)N1CCN(c2ccccc2Cl)CC1,17,"1.64 µM [falling, partial curve]",–
O=C(Nc1ncc([N+](=O)[O-])s1)C1CCN(S(=O)(=O)c2cnc[nH]2)CC1,5.8,"18.4 µM [falling, partial curve]",–
CCOC(=O)CCCCNC(=O)Nc1ccccc1,-5.87,"0.291 µM [falling, single point]",–
Nc1c(C(=O)CSc2ccccn2)c(=O)[nH]c(=O)n1C1CC1,1.68,"6.51 µM [rising, single point]",–
COc1ccc(OC)c(C2=NOC(C(=O)Nc3ccccc3SC)C2)c1 (configuration not stated),21.2,–,–
O=C1CC(=O)CC(c2ccccc2)C1,-3.65,–,–
O=C(Nc1ccccc1Cl)NC1(C(=O)NCC2CCCO2)CCCCC1 (configuration not stated),16.8,–,–
O=C(O)CCCNCc1ccccc1F,11.6,"3.66 µM [falling, single point]",–
Cc1cccc(C(=O)NC(=S)N2CCN(C)CC2)c1,63.8,–,"29.1 µM [rising, single point]"
O=C(c1cn(-c2ccccc2)nc1-c1cccc([N+](=O)[O-])c1)N1CCCCC1,63.1,–,"29.1 µM [rising, single point]"
NC(=O)c1ccc[n+](CCC[n+]2cccc(C(N)=O)c2)c1,-20.6,"29.1 µM [falling, single point]",–
CCOC(=O)N1CCN(C(=O)COc2cc(=O)n(CC)c3ccccc23)CC1,-27.9,"6.51 µM [falling, single point]",–

SMILES,cell number change [%],AC50 [1],AC50 [2]
CCOc1ccc(NC(=O)CN2CCN(CC(=O)Nc3ccccc3OC)CC2)cc1,21.6,"6.51 µM [falling, single point]",–
Cc1ccc(NC=C(S(=O)(=O)c2ccccc2)S(=O)(=O)c2ccccc2)c(C)c1,-24.5,"0.82 µM [falling, full curve, poor fit]",–
O=C(COC(=O)CCC1CCCC1)Nc1ccccc1Sc1ccccc1,-57.4,–,"16.4 µM [falling, single point]"
Cn1c(-c2ccccc2)cc2c3no[n+]([O-])c3ccc21,-7.11,–,–
CCOC(=O)C1CCN(S(=O)(=O)c2ccc(NC(=O)OC)cc2)CC1,4.53,–,–
CN(C)C(CNC(C(=O)Nc1ccc([N+](=O)[O-])cc1Br)c1ccccc1)c1ccccc1 (configuration not stated),-18.8,–,–
COC(=O)[C@@]1(Cc2ccc(OC)cc2)[C@H]2c3cc(C(=O)N(C)C)n(CCc4ccc(OC)c(Br)c4)c3C[C@H]2CN1C(=O)c1ccccc1,4.84,"1.84 µM [rising, single point]",–
CC1CCCCC1NC(=O)Cn1cc([N+](=O)[O-])ccc1=O (configuration not stated),3.89,"4.11 µM [falling, single point]",–
O=C(O)CC1S/C(=N/N=C/C=C/c2ccccc2[N+](=O)[O-])NC1=O (configuration not stated),-2.41,"0.58 µM [falling, single point]",–
CC(=O)N1C(C(=O)O)Cc2c([nH]c3ccccc23)C1C (configuration not stated),11.3,–,–
CC1Cc2ccccc2N1C(=O)c1ccc2c(c1)nnn2C (configuration not stated),10.3,"0.731 µM [rising, full curve]",–
O=C(O)C1CCN(c2nc(-c3ccccc3)nc3c2oc2ccccc23)CC1,–,"0.0231 µM [rising, full curve, poor fit]",–
CCOc1ccc2[nH]c3c(NCCc4ccc(OC)c(OC)c4)ncnc3c2c1,-20.5,"0.231 µM [rising, partial curve, poor fit]","0.184 µM [rising, full curve]"
CCOC(=O)C(C)Sc1nc2ccccc2c(=O)n1CC1CCCCC1 (configuration not stated),4.03,"29.1 µM [falling, single point]","4.11 µM [rising, single point]"
CCC(=O)NC(=S)Nc1ccc(NC(=O)CC)cc1,-50,–,"0.231 µM [falling, full curve, poor fit]"
CC(Oc1ccc(C(C)(C)C)cc1)C(=O)NCC(c1ccco1)N1CCCC1 (configuration not stated),-29.5,"0.517 µM [falling, full curve]",–
CCOc1cc(C(=O)OCC(=O)c2c(N)n(C)c(=O)n(C)c2=O)cc(OCC)c1OCC,-47.3,"6.51 µM [rising, single point]","29.1 µM [falling, single point]"
Cc1cc(N/N=C/c2ccccc2O)nc(-c2ccccc2O)n1,-23.6,"29.1 µM [falling, single point]",–
CCC1=Nc2cc(C(=O)NCC3CCCO3)ccc2Sc2ccc(Cl)cc21 (configuration not stated),-32.1,"29.1 µM [falling, single point]","32.6 µM [falling, single point]"
OC(CCc1ccncc1)COc1ccccc1 (configuration not stated),-17.5,"0.731 µM [rising, full curve, poor fit]",–
Cc1cccnc1NC(=S)NCc1ccco1,39.9,–,"0.231 µM [rising, full curve, poor fit]"

SMILES,cell number change [%],AC50 [1],AC50 [2]
O=C(Nc1cccc2ccccc12)c1cc2c(cc1Br)OCO2,–,"29.1 µM [rising, single point]",–
Cc1nccn1CCCN1C(=O)CNC1=S,22.4,–,"6.51 µM [falling, partial curve, poor fit]"
COc1ccc(CNC(=O)CSc2nc(-c3ccccc3)cc(-c3cccs3)c2C#N)cc1,–,"0.731 µM [rising, full curve]","0.259 µM [rising, full curve]"
O=C(Nc1ccccc1O)c1ccc(Cl)cc1,-15.9,"16.4 µM [falling, single point]",–
O=C(NCc1ccccc1)C1Cc2ccccc2CN1C(=O)c1ccco1 (configuration not stated),-23.1,"0.00461 µM [falling, full curve, poor fit]","0.00517 µM [falling, full curve, poor fit]"
COC(=O)CSc1ncnc2c1cnn2Cc1ccccc1,13.6,"0.0326 µM [falling, full curve, poor fit]",–
Cc1cc2nc(SCCOC(=O)Nc3ccc(Cl)cc3)nc(C)c2cc1C,24,–,–
CCOC(=O)/C=C1\CN(Cc2cc(OC)c(OC)c(OC)c2)S(=O)(=O)c2ccc(C(F)(F)F)cc21,10.2,–,–
Cc1cc(NC(=O)CSc2nc3c([nH]c4ccccc43)c(=O)n2-c2ccccc2F)no1,15,–,–
O=C(CSc1nc2ccccc2c(=O)n1-c1ccc(F)cc1F)Nc1ccc2c(c1)CCC2,35.8,"7.31 µM [falling, partial curve]","3.66 µM [rising, full curve]"
CCOC(=O)c1cc(-c2ccc(C#N)cc2)nc2c1c(C)nn2CCC#N,–,"4.11 µM [rising, full curve]",–
Oc1[nH]c2ccc(Br)cc2c1N=Nc1ccc(C(F)(F)F)cn1,-2.44,–,"0.58 µM [rising, full curve]"
CCCC1=Nc2cc(C(=O)NCCN3CCOCC3)ccc2Sc2ccc(C)cc21,9.16,–,–
Cc1ccc(S(=O)(=O)N(C)CCCC(=O)Nc2cc(C)ccc2C)cc1,30.3,"6.51 µM [rising, single point]","0.13 µM [rising, full curve, poor fit]"
CC(=O)Nc1ccc(NC(=O)c2c(C)nn(Cc3ccccc3Cl)c2C)cc1,–,"10.3 µM [rising, partial curve, poor fit]",–
CC(=O)NCCOc1c(C)cc(S(N)(=O)=O)cc1C,-27.5,"29.1 µM [falling, single point]","4.11 µM [falling, full curve, poor fit]"
COc1ccc(N=Cc2c(O)cc(C)oc2=O)cc1,-8.31,"0.116 µM [falling, single point]",–
CN(C)c1ccc(N/C=C/C(=O)c2ccc(F)cc2)cc1,100,"11.6 µM [rising, partial curve]","16.4 µM [rising, partial curve]"
COc1ccc(C(=O)c2coc3c2C(=O)C(=O)c2ccccc2-3)cc1,-68.6,"29.1 µM [falling, single point]","23.1 µM [falling, single point]"
COc1cc2cc(CCCOC(=O)c3ccco3)oc(=O)c2cc1OC,-14.9,"1.16 µM [falling, single point]","1.16 µM [falling, single point]"

# Molecules from the list above that have bromine, in the order listed:
SMILES,cell number change [%],AC50 [1],AC50 [2]
CN(C)C(CNC(C(=O)Nc1ccc([N+](=O)[O-])cc1Br)c1ccccc1)c1ccccc1 (configuration not stated),-18.8,–,–
COC(=O)[C@@]1(Cc2ccc(OC)cc2)[C@H]2c3cc(C(=O)N(C)C)n(CCc4ccc(OC)c(Br)c4)c3C[C@H]2CN1C(=O)c1ccccc1,4.84,"1.84 µM [rising, single point]",–
O=C(Nc1cccc2ccccc12)c1cc2c(cc1Br)OCO2,–,"29.1 µM [rising, single point]",–
Oc1[nH]c2ccc(Br)cc2c1N=Nc1ccc(C(F)(F)F)cn1,-2.44,–,"0.58 µM [rising, full curve]"
